Laboratory results as given in patent US20240252641A1.
Results are given in words; binding and its absence hold for the method and conditions named. Some binding calls cover weakened binding; strength is not graded here.

Target: T1, human CD70, recombinant, N-terminally biotinylated (residues 39-193) (human) (UniProt P32970)
T1 sequence (N-terminal biotin, looked up): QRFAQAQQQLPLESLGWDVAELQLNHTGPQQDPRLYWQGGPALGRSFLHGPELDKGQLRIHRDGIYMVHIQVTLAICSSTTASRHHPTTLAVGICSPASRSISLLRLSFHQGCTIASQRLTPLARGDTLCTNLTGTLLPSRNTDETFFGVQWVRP
Test: Octet titration, biotinylated CD70 on SA biosensors

- binding: binds
B1: 1-TC4-I-C10 (scFv)
scFv: EVQLVQSGAEVKKPGESLKISCKGSGYSFTSYWIGWVRQMPGKGLEWMGIIYPGDSDTRYSPSFQGQVTISADKSISTAYLQWSSLKASDTAMYYCAISRTESYVMDVWGQGTTVTVSSGGSGGSGGSGGSQSALTQPRSVSGSPGQSVTISCTGTSSDVGGYNYVSWYQQHPGKAPKLMIYDVTNRPSGVPDRFSASKSDNTATLTVSGVQAEDEADYYCSSYAGSHELFGGGTKLTVL
